Reference: PubChem BioAssay AID1508597 (Cure First, 2020)
Purpose: 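Knock-downs altering ovarian cancer cell survival with or without PARP inhibitor rucaparib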 (primary screen). System: human ovarian carcinoma lines grown from tumours: OCI-P5x (papillary serous) and OCI-C5x (clear cell). Reagents: siRNA pool against human genes, 1.25 pmol siRNA per well. Timing: 72 h or 96 h, depending on the cell culture. Conditions: rucaparib 20 µM (about IC30) or vehicle, present until read-out. Rucaparib or vehicle: Vehicle. Cell line: OCI-P5x (serous). Detection: 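Luminescent ATP-based viability assay read 72 or 96 h after transfection, depending on culture, given as normalised percent viability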. Direction: viability, normalised: higher = more viable cells remaining. Call rule: 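Active when normalised viability falls below 80 percent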. Calls: active = viability under 80%; inactive = viability 80% or more.
This is a random part of the about 2,100 reagents, in one setting of the screen. 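Calls flag viability under 80% in either arm, not effects specific to rucaparib; the reference for percent is not stated.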 A reagent listed more than once was tested more than once; the source does not tell the runs apart. Not stated in the record: the 100% reference.

no.	gene symbol	technical replicate	viability, normalised (%)	call
1	HSD17B4	1	81.9	inactive
2	HSD17B4	2	92.5	inactive
3	HSD17B4	3	90.7	inactive
4	FANCC	1	79	active
5	FANCC	2	70.7	active
6	FANCC	3	70.5	active
7	ENY2	1	72.5	active
8	ENY2	2	43.1	active
9	ENY2	3	54.4	active
10	FOXC2	1	52	active
11	FOXC2	2	47.7	active
12	FOXC2	3	74.2	active
13	TSSK2	1	107	inactive
14	TSSK2	2	94.6	inactive
15	TSSK2	3	107	inactive
16	HUNK	1	81.8	inactive
17	HUNK	2	88.7	inactive
18	HUNK	3	40.6	active
19	ETNK2	1	76.2	active
20	ETNK2	2	66.8	active
21	ETNK2	3	69.6	active
22	PAX5	1	47.9	active
23	PAX5	2	64.9	active
24	PAX5	3	64.9	active
25	MATK	1	111	inactive
26	MATK	1	94.9	inactive
27	MATK	2	102	inactive
28	MATK	2	103	inactive
29	MATK	3	93.3	inactive
30	MATK	3	116	inactive
31	LIG1	1	66.7	active
32	LIG1	2	78.2	active
33	LIG1	3	71	active
34	MAPK9	1	99.2	inactive
35	MAPK9	2	69.9	active
36	MAPK9	3	71.8	active
37	GNE	1	85.2	inactive
38	GNE	2	88.2	inactive
39	GNE	3	85.6	inactive
40	TADA1	1	78.3	active
41	TADA1	2	86.9	inactive
42	TADA1	3	76.8	active
43	CDK14	1	88.3	inactive
44	CDK14	2	72.9	active
45	CDK14	3	74.7	active
46	DDX23	1	61.2	active
47	DDX23	2	56.5	active
48	DDX23	3	70.3	active
49	CDX4	1	83.7	inactive
50	CDX4	2	67.6	active
51	CDX4	3	88.9	inactive
52	SUPT4H1	1	72.4	active
53	SUPT4H1	2	68	active
54	SUPT4H1	3	69.5	active
55	ERBB3	1	72.9	active
56	ERBB3	2	43.5	active
57	ERBB3	3	59.2	active
58	POU1F1	1	46	active
59	POU1F1	2	46.7	active
60	POU1F1	3	119	inactive
61	NUAK1	1	76.3	active
62	NUAK1	2	75.7	active
63	NUAK1	3	80	inactive
64	PSMC2	1	41.3	active
65	PSMC2	2	37.9	active
66	PSMC2	3	50.1	active
67	HHEX	1	70.9	active
68	HHEX	2	75	active
69	HHEX	3	80.4	inactive
70	ARID4A	1	69.5	active
71	ARID4A	2	73.9	active
72	ARID4A	3	72	active
73	INO80B	1	82.5	inactive
74	INO80B	2	87.2	inactive
75	INO80B	3	83.8	inactive

Reprinted from the entries so far for reference:
no.	gene symbol	technical replicate	viability, normalised (%)	call
50	CDX4	2	67.6	active
51	CDX4	3	88.9	inactive
52	SUPT4H1	1	72.4	active
53	SUPT4H1	2	68	active
54	SUPT4H1	3	69.5	active
